Results published in publication PMC10625600.

By UniProt entry, the sequences of proteins in these tests, tags left out. Residues count along the entry.
UniProt Q15717, 11-186: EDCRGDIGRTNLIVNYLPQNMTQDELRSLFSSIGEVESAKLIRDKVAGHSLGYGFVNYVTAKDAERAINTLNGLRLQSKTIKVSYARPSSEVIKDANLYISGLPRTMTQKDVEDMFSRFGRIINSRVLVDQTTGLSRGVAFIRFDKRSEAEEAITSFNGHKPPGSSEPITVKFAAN

Target: HuR RRM1+2 (UniProt Q15717)
Assay: SPR
Conditions: 50 nM RNA, no VHH, legend says unlabelled RNA, Methods names the Msi1-FITC probe; SPR: Biacore 8K, streptavidin chip; recombinant protein; residues 11-186; protein details: Avi-tag (biotinylated), TEV-cleavable His-tag

Sequence: GCUUUUAUUUAUUUUG [unlabelled Msi1 RNA]
- binding result: binds

Construct, isoform or probe ends are uncertain for at least one entry. At least one verdict rests on a figure or table, not on a statement of the authors.
